Measurements from the supplement of paper PMC3334620.
In all, about 33,000 sequences were measured (“E-score (-0.5 to 0.5)”: median about -0.016, highest 2% from about 0.3 on). This is one part of the list.

target: T1, Yer184c (UniProt P39961); experiment: PBM E-score (8-mer binding enrichment) (E-score (-0.5 to 0.5)); higher = stronger / more preferred TF binding; settings: protein concentration: 100 nM; construct: GST-full length
T1 sequence: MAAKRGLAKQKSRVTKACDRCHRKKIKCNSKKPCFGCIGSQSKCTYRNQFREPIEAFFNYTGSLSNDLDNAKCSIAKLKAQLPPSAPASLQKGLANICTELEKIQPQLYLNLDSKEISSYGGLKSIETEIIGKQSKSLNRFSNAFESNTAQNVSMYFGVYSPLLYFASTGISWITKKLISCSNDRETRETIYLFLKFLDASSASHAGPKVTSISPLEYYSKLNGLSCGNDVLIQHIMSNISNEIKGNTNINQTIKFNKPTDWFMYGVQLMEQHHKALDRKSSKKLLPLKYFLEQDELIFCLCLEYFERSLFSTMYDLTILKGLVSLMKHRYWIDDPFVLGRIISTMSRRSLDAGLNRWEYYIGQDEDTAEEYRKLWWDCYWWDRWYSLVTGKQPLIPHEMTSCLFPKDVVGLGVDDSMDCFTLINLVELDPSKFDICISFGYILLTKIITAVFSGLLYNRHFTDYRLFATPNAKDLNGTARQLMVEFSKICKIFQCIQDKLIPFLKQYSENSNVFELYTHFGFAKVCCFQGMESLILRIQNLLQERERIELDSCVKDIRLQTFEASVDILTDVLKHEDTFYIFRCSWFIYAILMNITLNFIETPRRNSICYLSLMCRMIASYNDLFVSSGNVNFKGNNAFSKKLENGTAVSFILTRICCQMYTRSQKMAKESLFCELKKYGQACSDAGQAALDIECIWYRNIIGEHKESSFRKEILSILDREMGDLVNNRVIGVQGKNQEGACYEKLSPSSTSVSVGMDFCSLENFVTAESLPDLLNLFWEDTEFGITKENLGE
Description: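 Universal 'all 10-mer' protein binding microarrays (Agilent AMADID 015681) probed with GST-tagged S. cerevisiae TFs (full-length or DBD) made by in vitro transcription/translation (PURExpress), about 100-200 nM. Bound TF was detected with fluorescent anti-GST. Each ungapped 8-mer (which stands for itself and its reverse complement) is scored by the PBM enrichment score (E-score), a modified Wilcoxon-Mann-Whitney statistic from -0.5 to +0.5, computed with the Universal PBM Analysis Suite. Scale: above 0.35 generally sequence-specific binding.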

Sequence	PBM E-score
CTTTACTA	0.177
AACTTGCA	-0.133
GCCCCTGA	-0.192
ACGGTTTG	0.147
CCACTTTC	-0.212
AATCACCA	0.0641
ACAGGCCC	-0.349
AACTAAAT	-0.0404
GTAACGAC	-0.0189
CATTCTTC	-0.107
TACCAAAA	0.0716
CACTAGCA	-0.313
AGATACGA	0.0973
ATGGGCTG	-0.305
CGAATGGC	0.0702
TCGGCCAA	0.193
CAGGGACG	-0.187
CAGCCCAA	-0.0561
GGCCACGA	-0.0979
CCCACTGC	-0.227
TCGTGCCA	-0.0537
TAGCTCCA	-0.0638
AGTGGCGG	-0.0491
CGAACCGA	0.328
TCGCCCGA	-0.0544

Sequence	PBM E-score
CGGATAGC	0.238
CCGTCAAA	0.0576
GATTTGAA	0.163
GAGAGCCC	-0.319
ACAGTCTG	-0.15
GAGCCAGA	-0.0585
CTGACTGC	-0.268
GTGGAGGA	-0.0625
GACACGCC	-0.118
GGAAATTA	0.201
AGCTGGTA	-0.148
CTCAGTCA	-0.0672
TACTCAGA	0.142
ACATCGAT	0.0644
ATTAGAGC	0.0465
ACTAAGGA	-0.0376
GCCTGATA	-0.173
AAAGGAAG	0.106
CTCGCGAA	-0.0706
GTACCTCA	-0.0731
CTAGGCAC	-0.14
TACGATAA	0.0543
CAAATTTC	0.175
AACTCGCT	0.0751
AGCTCGCA	-0.0221

Sequence	PBM E-score
GACCACTC	-0.0477
ACATACCG	-0.0905
AGCATCAT	-0.0505
GCGAACGC	-0.0962
CAGCTTGC	-0.0215
CTAGCAGC	-0.0845
CACTGTTC	-0.0254
TAAGTTCA	0.0634
AGTTCGGG	0.252
GCATCGTA	-0.0659
GCAGTCTA	-0.161
ATCTGCAG	0.086
GAAATTAC	0.209
GCAGCTAA	-0.0221
CGCAGTAA	-0.0204
AAAAGTAC	0.0767
GGTTAGTA	0.0879
CCAGATTA	0.0514
ATGTTACA	0.195
ACTAGTTC	0.108
ACCCCTTG	-0.291
ATATACAG	0.143
TCAGCAAA	0.158
ATTTCCTA	0.197
AAGTTTCT	0.0681

Shown as labelled records: part of the list above
ATGTTACA
  PBM E-score = 0.195
ACTAGTTC
  PBM E-score = 0.108
ACCCCTTG
  PBM E-score = -0.291
ATATACAG
  PBM E-score = 0.143

Later entries:

Sequence	PBM E-score
ATCCGTCA	0.056
ACGGGCGG	-0.229
GAGAGCGC	-0.218
CGCGACCG	0.104
CAAGCCGG	0.327
TCGACTCA	-0.0125
ACGCCTAT	-0.161
AAGCTTTC	0.289
GTTGTTAA	0.25
CTTAGCAC	0.115
GCTATAAA	0.0995
GAATGATC	0.129
CGTTCGTA	0.102
ACGTACCG	-0.0455
AGGTACCT	-0.273
TATGGAGA	-0.0738
CCTGAATC	-0.0172
GCTAAGAA	0.0162
ACCATACA	-0.032
CGTAAGAG	0.0388
AGCATCGG	0.24
CGTTAGCA	0.0219
GGTTTCCA	-0.134
GACGAAAA	0.3
AGTTAGTA	0.0559

Sequence	PBM E-score
ACTGCTAC	-0.127
AGCCGGCT	0.36
CTTAGCCC	-0.0355
AGGATCTG	-0.228
CAGAGCCA	-0.17
ATCCTTAC	-0.0522
ATAGATGA	0.0459
CGGGCAAA	0.157
AGGCTTTA	-0.154
ACACGGAA	0.295
CAATATGG	-0.132
AACCTACG	-0.0262
GTTTTGGA	0.134
CTCGACAA	-0.0392
ACCCGTGG	-0.169
ATCGATAA	0.0778
AATACCCG	0.104
CTGGCAAA	0.0862
ATCTTCGA	-0.0159
GTGCGATA	-0.126
ATGACTTG	-0.0838
ACTATGTA	-0.0696
GCGTGAAA	0.243
ACTCCAAT	0.0143
ATGACTGC	-0.101

Sequence	PBM E-score
GAGTGTGC	0.0695
TCCTCCAA	-0.119
CTGAACTC	-0.197
GCCCACGA	-0.184
AGTGCAAG	0.0836
AGCGAGTC	-0.175
ATGGCCTC	-0.106
AACCGAGC	0.323
GAGAATGC	-0.0179
CGGCCGAG	0.372
CCCCAAGC	0.0912
ACAACGCC	0.107
TCAATAGA	-0.0946
CCTAGGGA	-0.0337
GAGCGCCC	-0.233
CACAATTC	0.111
TACATAAA	0.0792
CGCTGAAA	0.0129
AGCTATAT	0.11
TCAATTCA	0.159
GCCTCCTA	-0.251
GGGCGAGA	-0.16
CCCTTCCC	-0.176
CCGCGAGG	0.117
CTCTTCGA	0.14

Pulled one by one from the list above:
Sequence	PBM E-score
CGGATAGC	0.238
GCCCACGA	-0.184
CGGCCGAG	0.372
ACGCCTAT	-0.161
CACTAGCA	-0.313
TAAGTTCA	0.0634

Additional entries

Sequence	PBM E-score
AGTCTCCC	-0.132
AGCGGACG	0.0647
GGCAGGAA	-0.0191
GTACGGTA	0.0915
ACCAAGAC	0.0281
ATCCGAAA	0.321
TAGCCTAA	-0.119
GTAGGGAC	-0.083
GAGGCGGC	0.0434
ACTGGTGC	-0.0219
CATATGAG	0.00741
CAGGAAGC	0.146
GCGTGCAA	-0.181
AGTGCCAC	-0.15
AAAACCGG	0.289
AAGCTGGG	-0.103
AGATGTCC	0.142
GAGTAAAA	-0.0227
ACTAAATG	0.0476
GCTGGACA	-0.245
AAAAAACC	0.052
AGAGCCAA	-0.00696
TGGGACCA	-0.265
CTAAGACC	0.0272
CTCCATAA	-0.0937

Part of the list above, bar-delimited:
Sequence | PBM E-score
GTTGTTAA | 0.25
ACTGGTGC | -0.0219

Following part:

Sequence	PBM E-score
AAGTGCCG	0.254
CCCTATAC	-0.136
CCCGGTGC	-0.053
ATTGGCGG	0.0231
ATCGGACA	0.303
ACCCCAAG	-0.206
CGGAAGCA	0.332
CGGATTAG	0.151
TCCGCAAA	0.153
GCGGCTGA	-0.0974
AACGTCCA	-0.0818
AAGATCTA	-0.0978
GACCTTAC	0.00308
CGTGAATA	-0.0251
AGTGGTCG	-0.0425
CCTATACG	-0.267
TAGTTCAA	0.0603
GGAGTCCC	-0.166
AACTCACG	0.15
TAGTGAGA	-0.00975
CGGCGGTA	0.348
GGGAAGGA	-0.198
AAAAAATG	0.266
GTTATAGA	0.117
CCAACGGC	-0.00857

Sequence	PBM E-score
ATCTAACA	0.0855
ATGGAGCG	-0.07
ACTCCCCT	-0.199
CGCCACAA	-0.0767
CAAAGTGC	-0.102
GATCCTAC	-0.0277
GGGGCCGA	-0.192
CTGTGGCA	-0.136
TAGATCCA	0.0121
AAGGTACT	0.142
ACTATCAC	-0.0155
CGTGATTC	-0.0226
ACGGGGGC	-0.31
TCGCCACA	-0.101
CATAGTAA	0.209
CCTTTGAA	-0.0618
ATCTGGCG	-0.109
CCTGTTAG	0.0158
ACTCGTAA	0.134
GAGGCGGA	0.0769
CCAACAGC	-0.0193
AAGTACCC	-0.0197
CATATATC	0.111
ATCTCTGG	-0.202
CGCTGGTC	-0.148

Sequence	PBM E-score
AGGTGTAA	-0.1
TGGTGACA	-0.00147
CCAGACAG	-0.131
ATCGCGAT	0.0567
GGGTGTGA	-0.3
CCTCCGCA	-0.247
CATCCATA	-0.0625
CACAGGAA	0.0944
ACAATCGG	0.307
GCATTGAC	-0.119
GCTAGCAC	-0.117
TACCCATA	-0.198
CACCGCAA	0.103
GCTCCTCC	-0.205
ATGCTGGA	0.0518
AGACAAAA	-0.0591
GCACTCGC	-0.079
AAGTGACA	0.0983
GCAGCGGA	0.125
GGTGTTAC	-0.0631
AACACGAC	0.0573
AATCTCAA	0.0809
ACTTAGCA	0.051
CCACCTCA	-0.312
GAGCTTCC	0.14

Sequence	PBM E-score
AACATGGA	-0.00809
GACCTGGC	-0.2
GGGATAGA	-0.186
GATGTGCC	0.045
AAGAAGAC	-0.025
CAGAATTC	0.149
CCCGATCA	0.0261
AACCCACA	0.0266
GGACCGAC	0.12
CACAGTGG	-0.144
AGATAGCC	0.019
ATCTTCTG	-0.00807
CGCAGACC	-0.105
CCCGACGC	0.00987
AGTAACGG	0.101
CGGCCCTC	-0.112
GGGATCAC	-0.226
CCGATAGC	-0.0418
AGGAGTAT	-0.271
CAAGGGGC	-0.189
AAGACGCG	-0.0332
TAATGACA	0.0861
ACATCCGA	0.346
ACACAATG	0.101
CGGTTCTC	0.173

Sequence	PBM E-score
CCGCTACG	-0.0976
GAGGCACC	-0.223
ACCTGTTG	-0.138
ACGACTTC	0.0208
ATATTCAC	-0.00695
GGCGTACA	-0.102
CCACGTCC	-0.396
CACTTATC	-0.0553
CTGGGCAA	0.00899
ACTGGTAG	-0.0441
CAATTTAA	0.239
AAAATAGC	-0.143
ACTTTTTC	-0.0519
CAGCCTCA	-0.182
CGTGTTGC	6e-05
CGATCGCG	0.136
AGTAACTG	-0.0845
ACGGACAA	0.27
AGCAAACT	0.103
AACTAATT	0.182
CGTCGTTA	-0.0143
GCTTTCTA	0.192
CACACAAG	0.0649
GGCGACCA	-0.182
GGCTGTTA	0.156

Sequence	PBM E-score
GTAGAACA	-0.166
AAAACTGG	-0.0222
ACCTCGCC	-0.206
ACAGCACT	0.087
TATACATA	0.113
CGAAGCAC	0.0194
CAATGTTA	0.0647
CGGGACAC	-0.026
CCATCTGA	-0.0258
CAAGCAAA	-0.0314
TTCAAAAA	0.228
TAAGCTTA	0.0409
CACACATC	-0.212
GTCGGACA	0.193
TGGAGACA	-0.0762
TCAGTTAA	0.0228
ACTGCATG	-0.0513
ACAGCATG	-0.108
AATAGCCT	-0.163
GCTTTAGA	-0.075
AGGATATA	0.124
CCAGTGTA	-0.121
AACTTCCT	0.136
CAGTAGAA	-0.069
GCGACGCC	-0.0662

Sequence	PBM E-score
CGGGTGAC	-0.0044
AGAATATG	0.11
GCCGTCAC	0.13
CTATTCTA	0.015
CACAAGGA	-0.0121
ACTGGGGG	-0.242
GTTCGAGA	-0.0825
ATAAAGCC	-0.0239
AATTGCGG	0.13
AACGCCGC	0.116
CCCTATAG	-0.146
GTAGTAAC	0.0433
CGTTTACC	0.0864
GATCCAAC	0.0324
CTTACAAC	0.149
CTGAGCAG	-0.075
CAAGAATG	0.103
GATAACAC	0.0102
AGGTATCC	0.125
